# Values quoted from earlier work as cited in US20060151574A1, “Formulations useful against hepatitis C virus infections” (priority 2002, published 2006).
# Some of these results come from one statement about several compounds together.
# Test system: Interferon Type I receptor subunits
# Conditions: HuH7 cells, after 24 hrs, RNA level, TaqMan analysis, independent of the dose; cited from earlier work
compound,measurement,value
"CC1=C(/C=C/C(C)=C/C=C/C(C)=C/C(=O)O)C(C)(C)CCC1 [ATRA, all trans retinoic acid]",expression of Interferon Type I receptor subunits,≤ 2 fold
